According to PMC8546589:
Results are given in words; binding and its absence hold for the method and conditions named. In cells and extracts the contact can be indirect. Here binding means that the protein was enriched with, or labelled near, the bait; the list need not be complete. For some assays here: Tags and fused reporters may be left off the sequences shown.

Protein sequences, listed by entry. Tags and fused reporters are not part of them. Lines headed by an entry give the natural chain unless they say otherwise; changes in a name come on top.
UniProt C4LTS8: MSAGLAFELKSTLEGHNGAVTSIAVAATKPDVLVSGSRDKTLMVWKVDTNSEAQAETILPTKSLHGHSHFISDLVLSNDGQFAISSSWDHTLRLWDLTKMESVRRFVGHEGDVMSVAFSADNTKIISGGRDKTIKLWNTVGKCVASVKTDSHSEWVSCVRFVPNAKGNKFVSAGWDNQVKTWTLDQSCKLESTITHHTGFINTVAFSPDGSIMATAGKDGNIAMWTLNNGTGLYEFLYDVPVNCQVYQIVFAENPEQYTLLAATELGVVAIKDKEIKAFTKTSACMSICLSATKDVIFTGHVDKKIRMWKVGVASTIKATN

Experiments:
[1] = target: T1, Myc-NAP07 (E. histolytica) (UniProt C4M608); assay: affinity purification with mass spectrometry; anti-c-Myc agarose IP from whole-cell lysate of E. histolytica lines overexpressing Myc-NAP07, Myc-NAP12, Myc-EBP-1, Myc-GNB2L1 or Myc-Tudor-like protein; LC-MS/MS in duplicate; hits in both replicates and exclusive against the Luc control
T1 sequence: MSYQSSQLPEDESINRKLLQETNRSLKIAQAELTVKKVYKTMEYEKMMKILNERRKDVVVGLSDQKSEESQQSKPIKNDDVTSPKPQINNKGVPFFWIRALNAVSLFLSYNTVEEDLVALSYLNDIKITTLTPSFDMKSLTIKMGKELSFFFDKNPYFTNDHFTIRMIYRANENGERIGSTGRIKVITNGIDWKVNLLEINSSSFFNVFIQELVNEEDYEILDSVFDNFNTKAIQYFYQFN

[2] = target: T2, Myc-NAP12 (E. histolytica) (UniProt C4M8H9); assay: as above
T2 sequence: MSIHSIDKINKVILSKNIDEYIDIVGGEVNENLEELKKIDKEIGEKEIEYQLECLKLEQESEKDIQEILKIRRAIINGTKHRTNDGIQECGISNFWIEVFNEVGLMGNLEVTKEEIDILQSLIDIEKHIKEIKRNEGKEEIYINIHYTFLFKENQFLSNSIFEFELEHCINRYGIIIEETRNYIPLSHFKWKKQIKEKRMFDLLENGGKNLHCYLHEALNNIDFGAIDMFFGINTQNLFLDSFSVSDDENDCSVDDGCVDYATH

[3] = target: T3, Myc-Tudor-like protein (E. histolytica) (UniProt C4M0A8); assay: as above
T3 sequence: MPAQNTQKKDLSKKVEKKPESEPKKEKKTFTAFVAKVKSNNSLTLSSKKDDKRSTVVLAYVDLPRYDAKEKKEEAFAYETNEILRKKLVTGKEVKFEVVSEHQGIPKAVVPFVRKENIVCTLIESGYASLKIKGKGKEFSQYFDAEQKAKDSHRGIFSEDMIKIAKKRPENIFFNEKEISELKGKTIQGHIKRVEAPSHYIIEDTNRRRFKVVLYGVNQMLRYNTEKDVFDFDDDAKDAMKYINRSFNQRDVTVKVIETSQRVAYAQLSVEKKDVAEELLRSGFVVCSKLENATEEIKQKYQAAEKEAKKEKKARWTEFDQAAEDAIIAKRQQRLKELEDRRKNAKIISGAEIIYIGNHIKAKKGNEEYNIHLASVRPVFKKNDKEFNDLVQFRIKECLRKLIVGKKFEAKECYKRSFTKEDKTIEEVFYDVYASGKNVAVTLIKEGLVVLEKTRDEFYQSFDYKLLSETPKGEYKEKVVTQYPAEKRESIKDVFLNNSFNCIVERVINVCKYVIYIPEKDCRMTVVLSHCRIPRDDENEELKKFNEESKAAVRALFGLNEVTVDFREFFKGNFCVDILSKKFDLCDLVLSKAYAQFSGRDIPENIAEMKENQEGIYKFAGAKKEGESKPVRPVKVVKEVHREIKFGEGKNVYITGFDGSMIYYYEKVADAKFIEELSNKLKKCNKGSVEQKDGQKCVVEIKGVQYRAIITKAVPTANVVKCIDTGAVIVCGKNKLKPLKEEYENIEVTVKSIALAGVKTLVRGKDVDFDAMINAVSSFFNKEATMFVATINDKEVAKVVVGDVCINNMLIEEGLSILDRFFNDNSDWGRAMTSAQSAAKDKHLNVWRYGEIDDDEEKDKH

[4] = target: T4, Myc-EhRdRP2 (E. histolytica) (UniProt C4M631); assay: affinity purification with mass spectrometry; anti-c-Myc agarose IP from whole-cell lysate of E. histolytica lines overexpressing the Myc-tagged bait (EhAgo2-2 WT, its two mutants, EhRdRP1, EhRdRP2), 2 h at 4°C, six low-stringency washes; LC-MS/MS in triplicate; nonribosomal hits in at least 2 of 3 data sets, exclusive or ≥3-fold enriched against the Luc control
T4 sequence: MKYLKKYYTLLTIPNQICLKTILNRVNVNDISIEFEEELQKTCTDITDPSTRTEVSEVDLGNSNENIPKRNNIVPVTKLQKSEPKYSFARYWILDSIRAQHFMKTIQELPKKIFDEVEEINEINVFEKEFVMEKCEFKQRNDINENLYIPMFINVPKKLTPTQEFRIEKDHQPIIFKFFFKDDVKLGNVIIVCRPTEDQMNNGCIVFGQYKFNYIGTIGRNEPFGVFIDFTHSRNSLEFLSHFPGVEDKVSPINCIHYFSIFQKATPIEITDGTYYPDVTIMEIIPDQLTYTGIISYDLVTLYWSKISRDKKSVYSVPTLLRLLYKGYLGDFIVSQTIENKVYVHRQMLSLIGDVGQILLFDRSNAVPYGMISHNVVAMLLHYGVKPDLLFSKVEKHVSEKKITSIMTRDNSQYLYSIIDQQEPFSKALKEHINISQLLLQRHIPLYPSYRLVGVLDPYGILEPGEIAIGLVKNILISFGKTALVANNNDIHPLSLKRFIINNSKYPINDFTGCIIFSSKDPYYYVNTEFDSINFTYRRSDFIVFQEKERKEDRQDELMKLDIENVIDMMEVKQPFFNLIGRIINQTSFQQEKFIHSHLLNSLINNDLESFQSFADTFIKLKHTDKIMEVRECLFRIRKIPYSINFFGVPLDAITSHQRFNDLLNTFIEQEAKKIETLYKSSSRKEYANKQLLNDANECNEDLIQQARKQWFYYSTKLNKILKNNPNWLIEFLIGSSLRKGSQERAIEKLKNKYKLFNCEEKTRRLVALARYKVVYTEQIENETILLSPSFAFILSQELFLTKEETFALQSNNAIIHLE

[5] = target: Myc-GNB2L1 (E. histolytica) (UniProt C4LTS8); assay: affinity purification with mass spectrometry; anti-c-Myc agarose IP from whole-cell lysate of E. histolytica lines overexpressing Myc-NAP07, Myc-NAP12, Myc-EBP-1, Myc-GNB2L1 or Myc-Tudor-like protein; LC-MS/MS in duplicate; hits in both replicates and exclusive against the Luc control

Measured: binding

guanine nucleotide-binding protein subunit beta 2-like 1 (endogenous) (from UniProt C4LTS8)
binds: [1] | [2] | [3] | [4]

B1: enhancer binding protein-1 (endogenous) (protein, UniProt C4M5C4 1-306)
chain: MTTLYVSHLDYSLKVEDVQNAFKTYNPKEVKIISTPIGYSRGFAFIEFATPQEAEKALEMDRHTIGKMEIKVQKALPKEETTTERKMNRRGFKGKRNTRKRHLVKRTNEVTDNMLFIKNLPFAITEEKLKEMFSKFGVVEITLIKTHRKKGNVTKNNGIAFITVKTAEEQKKAIAEMNNFEVEGRKITVAAAYKKVENKQTTKKTNEPKSLSETNVFVKNLPFTLTDEGFKKLFEKYDVVEATIVKRHNKKLNVDRSKGYGFVTFKTAEQQKKAIAEMDNFEVEGRKITVTSAYQRAEKKEETTSN
binds: [5] | [1] | [2] | [3]
